Assay results reported in article PMC6702725.
No constants are given. Whether binding was seen depends on the method and setting. Binding seen in cells or lysates may run through a third protein. Binding calls can cover weak binding; strength is not graded here. Tags and fused reporters may be left off the sequences shown.

B1: FLAG-tagged phosphatidylinositol-5-phosphate 4-kinase type-2 gamma (PIP4KIIγ) (enzyme, UniProt Q8TBX8-1 1-421)
chain: MASSSVPPATVSAATAGPGPGFGFASKTKKKHFVQQKVKVFRAADPLVGVFLWGVAHSINELSQVPPPVMLLPDDFKASSKIKVNNHLFHRENLPSHFKFKEYCPQVFRNLRDRFGIDDQDYLVSLTRNPPSESEGSDGRFLISYDRTLVIKEVSSEDIADMHSNLSNYHQYIVKCHGNTLLPQFLGMYRVSVDNEDSYMLVMRNMFSHRLPVHRKYDLKGSLVSREASDKEKVKELPTLKDMDFLNKNQKVYIGEEEKKIFLEKLKRDVEFLVQLKIMDYSLLLGIHDIIRGSEPEEEAPVREDESEVDGDCSLTGPPALVGSYGTSPEGIGGYIHSHRPLGPGEFESFIDVYAIRSAEGAPQKEVYFMGLIDILTQYDAKKKAAHAAKTVKHGAGAEISTVHPEQYAKRFLDFITNIFA

Key:
[1] = molecular target: T1, FLAG-tagged phosphatidylinositol-5-phosphate 4-kinase type-2 gamma (PIP4KIIγ) (human) (UniProt Q8TBX8); test: co-IP; CGL2 cells stably expressing FLAG-PIP4KIIγ (or empty vector Neo) lysed in RIPA buffer 30 min on ice; IP with anti-FLAG, or with anti-α-tubulin (mouse IgG as control); immunoblot
T1 sequence: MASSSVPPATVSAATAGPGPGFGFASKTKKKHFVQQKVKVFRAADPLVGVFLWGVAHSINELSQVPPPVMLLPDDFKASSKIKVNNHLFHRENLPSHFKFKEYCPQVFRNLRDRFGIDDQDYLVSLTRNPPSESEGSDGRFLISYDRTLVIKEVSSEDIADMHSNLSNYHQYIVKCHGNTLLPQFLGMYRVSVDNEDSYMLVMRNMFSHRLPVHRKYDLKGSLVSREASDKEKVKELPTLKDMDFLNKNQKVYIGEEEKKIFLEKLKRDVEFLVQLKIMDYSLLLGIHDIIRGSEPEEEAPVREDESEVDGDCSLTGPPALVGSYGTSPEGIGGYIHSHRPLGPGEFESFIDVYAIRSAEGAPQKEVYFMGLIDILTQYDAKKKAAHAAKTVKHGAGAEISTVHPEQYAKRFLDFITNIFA

[2] = molecular target: α-tubulin (human (endogenous in CGL2)); test: as above

Molecule | binding [1] | binding [2]
α-tubulin (human (endogenous in CGL2)) | binds | 
B1 |  | binds
